Paper PMC5707026
These are yes or no findings as the source states them, for the method shown. Binding seen in cells or lysates may run through a third protein. Sequences can lack the tags named with a protein.

Amino acid sequences for entries named in this document (tags omitted). A change or cut given only in a name is not applied to a line headed by its entry.
UniProt Q07008: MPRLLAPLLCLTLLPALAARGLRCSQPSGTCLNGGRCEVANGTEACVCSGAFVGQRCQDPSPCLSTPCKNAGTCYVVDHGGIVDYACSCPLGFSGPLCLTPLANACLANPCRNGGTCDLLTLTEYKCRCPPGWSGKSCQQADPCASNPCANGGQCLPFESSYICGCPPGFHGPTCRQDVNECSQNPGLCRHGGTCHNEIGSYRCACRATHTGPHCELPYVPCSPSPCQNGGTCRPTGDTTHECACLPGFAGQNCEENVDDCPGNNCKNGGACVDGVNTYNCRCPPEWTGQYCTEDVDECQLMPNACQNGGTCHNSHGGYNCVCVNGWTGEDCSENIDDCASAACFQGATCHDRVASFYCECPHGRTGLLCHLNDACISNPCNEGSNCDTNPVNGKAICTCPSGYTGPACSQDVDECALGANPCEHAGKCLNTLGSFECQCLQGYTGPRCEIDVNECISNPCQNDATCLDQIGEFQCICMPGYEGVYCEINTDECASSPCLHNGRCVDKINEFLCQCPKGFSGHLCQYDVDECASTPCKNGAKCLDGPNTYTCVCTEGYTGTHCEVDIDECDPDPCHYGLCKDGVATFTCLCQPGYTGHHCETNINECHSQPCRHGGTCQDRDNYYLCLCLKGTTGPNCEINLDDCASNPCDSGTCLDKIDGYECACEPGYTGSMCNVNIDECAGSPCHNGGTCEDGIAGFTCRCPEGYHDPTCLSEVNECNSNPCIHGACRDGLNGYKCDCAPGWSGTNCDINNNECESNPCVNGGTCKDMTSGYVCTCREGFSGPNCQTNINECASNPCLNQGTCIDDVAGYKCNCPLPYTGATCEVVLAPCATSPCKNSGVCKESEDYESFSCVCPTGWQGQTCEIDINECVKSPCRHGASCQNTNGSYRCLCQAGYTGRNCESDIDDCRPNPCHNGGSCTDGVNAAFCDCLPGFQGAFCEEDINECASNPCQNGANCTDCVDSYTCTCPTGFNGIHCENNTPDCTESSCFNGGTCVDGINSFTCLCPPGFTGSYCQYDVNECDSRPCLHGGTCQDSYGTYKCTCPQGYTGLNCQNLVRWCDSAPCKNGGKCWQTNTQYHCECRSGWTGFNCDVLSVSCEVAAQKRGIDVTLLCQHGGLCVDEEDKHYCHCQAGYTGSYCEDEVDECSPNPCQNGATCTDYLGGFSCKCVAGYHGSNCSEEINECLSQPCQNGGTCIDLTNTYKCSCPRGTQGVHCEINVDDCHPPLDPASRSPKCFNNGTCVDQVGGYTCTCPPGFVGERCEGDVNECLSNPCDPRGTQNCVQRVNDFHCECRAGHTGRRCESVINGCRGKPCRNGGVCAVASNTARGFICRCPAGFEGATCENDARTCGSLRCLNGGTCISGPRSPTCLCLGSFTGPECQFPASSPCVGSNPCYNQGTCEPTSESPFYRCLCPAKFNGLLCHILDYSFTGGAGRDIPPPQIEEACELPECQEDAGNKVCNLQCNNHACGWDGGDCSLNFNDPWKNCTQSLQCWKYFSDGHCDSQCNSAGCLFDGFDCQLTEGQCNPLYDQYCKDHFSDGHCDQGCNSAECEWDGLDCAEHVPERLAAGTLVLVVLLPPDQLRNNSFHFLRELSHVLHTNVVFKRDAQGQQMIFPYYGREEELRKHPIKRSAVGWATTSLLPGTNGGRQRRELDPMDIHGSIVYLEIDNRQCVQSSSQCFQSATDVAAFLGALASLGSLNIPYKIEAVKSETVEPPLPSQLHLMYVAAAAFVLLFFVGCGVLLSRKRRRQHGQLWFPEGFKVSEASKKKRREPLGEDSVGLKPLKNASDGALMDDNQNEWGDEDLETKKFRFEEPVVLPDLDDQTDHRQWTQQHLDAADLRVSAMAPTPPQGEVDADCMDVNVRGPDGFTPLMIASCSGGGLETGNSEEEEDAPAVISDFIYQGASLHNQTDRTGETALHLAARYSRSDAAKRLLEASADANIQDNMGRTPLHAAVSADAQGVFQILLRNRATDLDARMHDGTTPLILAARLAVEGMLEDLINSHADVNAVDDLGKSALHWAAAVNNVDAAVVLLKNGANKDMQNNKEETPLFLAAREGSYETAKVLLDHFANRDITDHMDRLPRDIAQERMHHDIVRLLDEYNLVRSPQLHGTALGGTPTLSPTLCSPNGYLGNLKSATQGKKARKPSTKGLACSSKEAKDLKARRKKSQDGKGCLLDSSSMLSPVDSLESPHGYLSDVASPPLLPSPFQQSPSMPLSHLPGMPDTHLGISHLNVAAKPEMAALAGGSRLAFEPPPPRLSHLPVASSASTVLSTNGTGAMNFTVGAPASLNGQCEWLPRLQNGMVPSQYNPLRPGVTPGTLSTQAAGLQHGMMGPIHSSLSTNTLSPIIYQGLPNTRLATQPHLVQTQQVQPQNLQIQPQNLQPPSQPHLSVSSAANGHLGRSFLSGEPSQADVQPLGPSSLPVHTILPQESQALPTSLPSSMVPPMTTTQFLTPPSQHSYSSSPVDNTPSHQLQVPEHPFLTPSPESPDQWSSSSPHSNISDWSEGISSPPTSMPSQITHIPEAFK

Target: Notch1 transmembrane intracellular domain (Notch1-TMIC) (rat (endogenous in rat brain)) (UniProt Q07008)
Assay: co-IP; brain samples of ICH rats transfected in vivo with GFP-Botch plasmids, lysed in ice-cold RIPA buffer; lysate with specific antibodies or normal IgG 1 h at 4 °C, protein A+G agarose overnight at 4 °C, immunoblot; which antibody precipitated is not stated

binding: no binding
B1: wild type GFP-Botch (rat Botch, NPG7/Chac1) (protein, UniProt B3STU3 1-222)
chain: MKQESAAQSTPPPSLSPAPSAQPSWEDGDPQALWIFGYGSLVWKPDFAYSDSRVGFVRGYSRRFWQGDTFHRGSDKMPGRVVTLLEDHEGCTWGVAYQVRGEQVSEALKYLNVREAVLGGYDTKEVTFYPQDTPDQPLTALAYVATPQNPGYLGPAPEEVIATQILACRGFSGHNLEYLLRLADFMQLCGPQAQDEHLEAIVDAVGSLLPCSYLSEQPLALI
